# Library screen at single concentrations

Measurements from “University of Dundee, Small-Polar-MMV Screening Library” (2021), ChEMBL document CHEMBL3988442.

Results are given as percent effect.
The record does not define 0% and 100%; most values in the screen are far below 50% and negative numbers occur (in some assays of this library far below -100).
This is an unselected part of the compounds tested.

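Whole-cell growth test on Mycobacterium tuberculosis, read after 4 days in a medium based on cholesterol and the lipid DPPC; the read-out is not stated. Concentration: 500 µM. Direction is inferred from retests: higher values go with more growth inhibition. Of about 18,000 compounds tested this way, about 900 (5%) reached 50% or more in at least one test.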

SMILES	effect
COc1cc(CN)ccc1OCc1cccnc1	-18.8
NS(=O)(=O)NCC1CCCCN1 (centres undefined)	-2.446
CN1CCCC2(CCNC2)C1=O (centres undefined)	12.36
CN(C)c1ccnc(NC(=O)C(C)(C)C)c1	-5.014
Cc1cnc(NC(=O)NCc2ccnn2C)c(Br)c1	47.86
Cc1cc(C)c(CNC(=O)C2CCCO2)c(=O)[nH]1 (centres undefined)	1.732
O=C(Cc1ccccc1)OCCN1CCOCC1	-4.596
CN1CCN(c2ccc(NC(=O)C3CC3)cc2)CC1	-7.143
O=C(NCCO)NCc1c(F)cc(Br)cc1F	3.066
CN1CCCN(S(=O)(=O)c2ccccc2F)CC1	11.98
CC(CN)(CO)Cc1cccs1 (centres undefined)	10.5
Cc1ccnn1CC(=O)N[C@@H]1CCOC[C@H]1O	-12.42
Cc1nc(C)c(CC(=O)NCc2snnc2C)c(=O)[nH]1	-6.067
CC(OC(=O)c1ccc(C(F)(F)F)cc1)C(N)=O (centres undefined)	31.76
CC(C)CC(=O)NCCc1noc(-c2ccncc2)n1	-24.05
CSC(C)CNC(=O)[C@@H]1CCCN1 (some centres undefined)	-7.07
CCC(CO)NC(=O)C1(Cc2ccccc2)CC1 (centres undefined)	18.83
Cn1cc(S(=O)(=O)NCC(N)c2ccccc2)cn1 (centres undefined)	-0.8029
NCCC1(O)CNC1	-26.53
CCC(OCCN)c1ccccc1 (centres undefined)	-13.45
O=c1ccc2ccccc2n1CCCn1cnnn1	27.02
CCCC(C)N1CCN(Cc2nc(COC)no2)CC1 (centres undefined)	18.34
Cc1cc(NC(=O)CN2CCC(C(N)=O)CC2)n(C)n1	-0.9837
Cc1ccc(C(N)c2ccccn2)cc1 (centres undefined)	-1.124
Cc1cc(NC(=O)NC2CCS(=O)(=O)CC2)ccc1F	12.72
NCc1nncn1-c1ccccc1	-9.253
Cn1cc(CNC(=O)C2CSc3ccccc3O2)cn1 (centres undefined)	54.84
COCCC1(C(=O)N(C)CC2CCCCO2)CCC1 (centres undefined)	-16.29
c1cc(CNc2ncnc3[nH]ncc23)c2c(c1)OCO2	14.12
CNC(=O)Cc1noc(CCc2cccc(F)c2)n1	3.942
O=C1CCC(C(=O)NCCc2ccc(F)cc2)N1 (centres undefined)	-2.55
CC(C)c1nc(CN(C)C(=O)c2cccc(N)n2)no1	-10.22
COC(C)CCNC(=O)[C@@H](O)c1ccccc1 (some centres undefined)	3.811
CSCC[C@H](N)C(=O)OC(C)(C)C	-6.715
CC1CCCCN1C(=O)c1ccc(CN)cc1 (centres undefined)	5.197
CC(CNC(=O)c1cc(C2CC2)[nH]n1)N1CCCC1 (centres undefined)	-6.076
N#Cc1cc(Br)ccc1NCCC(=O)N1CCOCC1	37.26
Cc1nn(C)c(C)c1CC(=O)NC(C)c1ccncc1 (centres undefined)	-2.68
CCC(C)(CC)NC(=O)Nc1cnn(CCOC)c1	3.234
O=c1c2ccccc2ncn1CCc1ccccn1	11.77
O=C(NCC(O)C1CC1)c1cccnc1C(F)(F)F (centres undefined)	-14.27
Cn1c(=O)ccn(CC(=O)NCc2ccccc2)c1=O	-15.64
O=C(Nc1ncccn1)C1(c2ccccc2)CC1	9.217
O=C(NCc1cccnc1)c1cn2cccnc2n1	10.06
Cc1cnccc1CNC(=O)CSCCN1CCCC1	4.495
CCc1nc(CCN)sc1C	-0.2502
CCN(C1CCN(c2cncc(Cl)n2)CC1)S(C)(=O)=O	17.5
CCc1nc(CN2CCCNCC2)no1	-14.14
O=S1(=O)N=C(NCc2ccco2)c2ccccc21	4.978
C=C(C)CN(CC)C(=O)CN(C)CCN1CCOCC1	-3.834
NS(=O)(=O)CCCc1ccccc1	4.658
COc1cccc(C(=O)N(C)C2CCN(C)CC2)c1	6.094
O=C(NCCc1nnc2n1CCC2)c1cncc(Br)c1	1.353
Cc1cccc(C)c1NC(=O)CCCS(C)(=O)=O	-0.8999
COc1ccc(C(N)c2ccncc2)cc1 (centres undefined)	10.58
CCc1nccn1-c1ccc(CN)cc1	11.72
NCC(=O)Nc1ccccc1	1.992

Some entries from above, unchanged:

| SMILES | effect |
|---|---|
| `O=C(Nc1ncccn1)C1(c2ccccc2)CC1` | 9.217 |
| `NCC(=O)Nc1ccccc1` | 1.992 |
| `CSCC[C@H](N)C(=O)OC(C)(C)C` | -6.715 |